Test results from PMC11904782.

Protein sequences, listed by entry. Tags and fused reporters are not part of them. Lines headed by an entry give the natural chain unless they say otherwise; changes in a name come on top.
UniProt Q8NFD5: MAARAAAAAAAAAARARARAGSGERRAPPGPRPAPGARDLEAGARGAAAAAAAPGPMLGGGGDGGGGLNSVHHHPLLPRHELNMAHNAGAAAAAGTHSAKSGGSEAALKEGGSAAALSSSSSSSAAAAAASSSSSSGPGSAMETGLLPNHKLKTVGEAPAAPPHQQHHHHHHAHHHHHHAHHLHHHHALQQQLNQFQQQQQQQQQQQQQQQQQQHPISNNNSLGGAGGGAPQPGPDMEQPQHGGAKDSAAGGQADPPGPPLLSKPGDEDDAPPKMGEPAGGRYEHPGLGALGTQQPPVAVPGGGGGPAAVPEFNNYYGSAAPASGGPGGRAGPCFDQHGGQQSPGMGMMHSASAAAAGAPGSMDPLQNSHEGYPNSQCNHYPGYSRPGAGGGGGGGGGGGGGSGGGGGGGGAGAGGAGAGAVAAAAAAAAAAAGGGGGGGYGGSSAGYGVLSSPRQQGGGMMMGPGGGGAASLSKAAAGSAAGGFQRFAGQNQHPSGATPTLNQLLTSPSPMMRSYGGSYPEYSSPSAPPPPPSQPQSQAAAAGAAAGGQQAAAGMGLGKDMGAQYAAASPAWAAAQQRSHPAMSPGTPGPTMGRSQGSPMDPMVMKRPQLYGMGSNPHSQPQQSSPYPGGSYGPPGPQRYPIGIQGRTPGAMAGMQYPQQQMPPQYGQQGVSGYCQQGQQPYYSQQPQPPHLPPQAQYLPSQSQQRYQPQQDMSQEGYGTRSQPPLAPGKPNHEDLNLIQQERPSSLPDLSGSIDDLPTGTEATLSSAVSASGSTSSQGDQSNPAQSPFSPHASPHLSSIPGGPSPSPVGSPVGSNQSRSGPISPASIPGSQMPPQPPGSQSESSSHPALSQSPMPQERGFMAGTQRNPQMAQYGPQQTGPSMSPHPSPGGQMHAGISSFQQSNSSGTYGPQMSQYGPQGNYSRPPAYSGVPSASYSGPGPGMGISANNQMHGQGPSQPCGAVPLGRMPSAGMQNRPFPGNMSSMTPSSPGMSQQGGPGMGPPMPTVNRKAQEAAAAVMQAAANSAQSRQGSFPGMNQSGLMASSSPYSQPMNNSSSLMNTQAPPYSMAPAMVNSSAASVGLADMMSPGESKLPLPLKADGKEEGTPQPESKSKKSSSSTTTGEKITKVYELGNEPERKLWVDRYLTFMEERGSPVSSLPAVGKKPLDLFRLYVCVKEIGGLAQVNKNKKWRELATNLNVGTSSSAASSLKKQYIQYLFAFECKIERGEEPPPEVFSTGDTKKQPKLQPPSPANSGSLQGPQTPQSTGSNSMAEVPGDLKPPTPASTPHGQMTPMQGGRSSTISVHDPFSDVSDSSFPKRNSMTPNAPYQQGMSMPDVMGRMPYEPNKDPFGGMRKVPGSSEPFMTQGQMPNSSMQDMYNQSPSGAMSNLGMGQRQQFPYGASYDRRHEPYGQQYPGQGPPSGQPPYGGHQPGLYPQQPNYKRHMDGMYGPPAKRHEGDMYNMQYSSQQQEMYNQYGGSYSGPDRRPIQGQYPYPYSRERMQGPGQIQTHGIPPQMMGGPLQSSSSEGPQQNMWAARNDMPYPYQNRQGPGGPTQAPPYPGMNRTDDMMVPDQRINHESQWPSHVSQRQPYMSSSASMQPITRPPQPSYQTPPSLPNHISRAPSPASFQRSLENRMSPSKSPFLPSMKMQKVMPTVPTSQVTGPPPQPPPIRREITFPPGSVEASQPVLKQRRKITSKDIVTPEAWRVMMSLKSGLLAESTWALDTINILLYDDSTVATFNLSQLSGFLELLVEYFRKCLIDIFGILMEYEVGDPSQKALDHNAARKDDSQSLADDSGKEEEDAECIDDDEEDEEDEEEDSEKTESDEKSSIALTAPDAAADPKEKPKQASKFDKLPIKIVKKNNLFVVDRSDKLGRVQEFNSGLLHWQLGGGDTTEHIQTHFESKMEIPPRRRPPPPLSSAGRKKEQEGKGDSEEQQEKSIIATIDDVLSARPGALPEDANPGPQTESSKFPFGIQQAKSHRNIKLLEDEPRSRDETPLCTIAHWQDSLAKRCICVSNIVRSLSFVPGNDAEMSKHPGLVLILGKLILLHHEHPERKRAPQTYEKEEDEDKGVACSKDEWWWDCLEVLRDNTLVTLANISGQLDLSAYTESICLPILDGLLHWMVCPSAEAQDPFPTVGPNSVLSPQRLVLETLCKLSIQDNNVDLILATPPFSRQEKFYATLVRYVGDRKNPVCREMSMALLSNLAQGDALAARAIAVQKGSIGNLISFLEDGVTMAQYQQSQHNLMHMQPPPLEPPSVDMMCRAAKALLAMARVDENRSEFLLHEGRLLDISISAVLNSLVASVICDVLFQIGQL

Biological target: GST–ARID1B–ARM: ARM domain of ARID1B (aa 1861–2236) (UniProt Q8NFD5)
Experiment: pull-down; GST–ARID1A mutants or GST–ARID1B–ARM on Glutathione Sepharose beads incubated with HEK293 (methods: 293T) nuclear extract for 4 h at 4°C with RNase A and DNase I; bound proteins by immunoblot; only the target purified

binding: binds
B1: DNA polymerase λ (POLL) (protein, UniProt Q9UGP5 1-575)
chain: MDPRGILKAFPKRQKIHADASSKVLAKIPRREEGEEAEEWLSSLRAHVVRTGIGRARAELFEKQIVQHGGQLCPAQGPGVTHIVVDEGMDYERALRLLRLPQLPPGAQLVKSAWLSLCLQERRLVDVAGFSIFIPSRYLDHPQPSKAEQDASIPPGTHEALLQTALSPPPPPTRPVSPPQKAKEAPNTQAQPISDDEASDGEETQVSAADLEALISGHYPTSLEGDCEPSPAPAVLDKWVCAQPSSQKATNHNLHITEKLEVLAKAYSVQGDKWRALGYAKAINALKSFHKPVTSYQEACSIPGIGKRMAEKIIEILESGHLRKLDHISESVPVLELFSNIWGAGTKTAQMWYQQGFRSLEDIRSQASLTTQQAIGLKHYSDFLERMPREEATEIEQTVQKAAQAFNSGLLCVACGSYRRGKATCGDVDVLITHPDGRSHRGIFSRLLDSLRQEGFLTDDLVSQEENGQQQKYLGVCRLPGPGRRHRRLDIIVVPYSEFACALLYFTGSAHFNRSMRALAKTKGMSLSEHALSTAVVRNTHGCKVGPGRVLPTPTEKDVFRLLGLPYREPAERDW

Results are given in words; binding and its absence hold for the method and conditions named. Binding seen in cells or lysates may run through a third protein. Binding calls can cover weak binding; strength is not graded here.
